This is an account of results in patent US20150010586A1.

What all share (details): remark: other sources report otherwise
Assay [1] concerns the target HLA-A*0301 (human). Put plainly: cellular competition assay vs FL-labelled reference peptide on B cells; affinity category (high/good IC50<5 uM, intermediate 5-15 uM, low >15-50 uM).
The target of assay [2] is HLA-A*0301 (human). Put plainly: peptide binding analysis (Table 1).
The target in assay [3] is HLA-A*1101 (human). Put plainly: peptide binding analysis (Table 1).
Assay [4] concerns the target HLA-A*1101 (human). Put plainly: cellular competition assay vs FL-labelled reference peptide on B cells; affinity category (high/good IC50<5 uM, intermediate 5-15 uM, low >15-50 uM).

These are yes or no findings as the source states them, for the method shown. A result given as binding can be weak or reduced; the word gives no strength.

Take RAHSSHLKSK [p53 363-372 …]: the binding result in assay [1] is “binds”.
For the molecule GFLHSGTAK [p53 112-120 …], the binding result in assay [2], in assay [3], in assay [1] and in assay [4] was “binds” in each case.
Regarding LGFLHSGTAK [p53 111-120 …], the binding result in assay [2] and in assay [3] was “binds” in each case.
Take RTEEENLRK [p53 283-291 …]: the binding result in assay [4] was “binds”.
For KGQSTSRHK [p53 373-381 …], in assay [1], the binding result is “binds”.
